{"source": "paper PMC6270305", "about": "(Molecules, 2013)", "note": "Some peptides are written in HELM: one residue between dots, names in brackets for other building blocks, links after the first $."}
{"test": "peptide synthesis", "conditions": "whole synthesis", "units": {"crude yield": "%", "final HPLC purity": "%"}}
{"substance": "[L-Msa7,11]-SRIF", "crude yield": 44, "final HPLC purity": 99}
{"substance": "[L-Msa6,7]-SRIF", "crude yield": 20, "final HPLC purity": 98}
{"substance": "PEPTIDE1{A.G.C.K.N.F.F.W.K.T.[Msa].T.S.C}$PEPTIDE1,PEPTIDE1,3:R3-14:R3$$$V2.0", "crude yield": 44, "final HPLC purity": 99}
{"substance": "PEPTIDE1{A.G.C.K.N.[Msa].[Msa].W.K.T.[Msa].T.S.C}$PEPTIDE1,PEPTIDE1,3:R3-14:R3$$$V2.0", "crude yield": 44, "final HPLC purity": 95}
{"substance": "PEPTIDE1{A.G.C.K.N.[Msa].F.W.K.T.F.T.S.C}$PEPTIDE1,PEPTIDE1,3:R3-14:R3$$$V2.0", "crude yield": 60, "final HPLC purity": 95}
{"substance": "[L-Msa6,11]-SRIF", "crude yield": 44, "final HPLC purity": 99}
